Our source for the log2 fold change values is the supplement of paper PMC10849652.

The chains behind the UniProt entries cited, without tags or fusion partners. Where a name states a change or a piece, a line headed by the entry shows the natural chain unless it says otherwise.
UniProt P49336: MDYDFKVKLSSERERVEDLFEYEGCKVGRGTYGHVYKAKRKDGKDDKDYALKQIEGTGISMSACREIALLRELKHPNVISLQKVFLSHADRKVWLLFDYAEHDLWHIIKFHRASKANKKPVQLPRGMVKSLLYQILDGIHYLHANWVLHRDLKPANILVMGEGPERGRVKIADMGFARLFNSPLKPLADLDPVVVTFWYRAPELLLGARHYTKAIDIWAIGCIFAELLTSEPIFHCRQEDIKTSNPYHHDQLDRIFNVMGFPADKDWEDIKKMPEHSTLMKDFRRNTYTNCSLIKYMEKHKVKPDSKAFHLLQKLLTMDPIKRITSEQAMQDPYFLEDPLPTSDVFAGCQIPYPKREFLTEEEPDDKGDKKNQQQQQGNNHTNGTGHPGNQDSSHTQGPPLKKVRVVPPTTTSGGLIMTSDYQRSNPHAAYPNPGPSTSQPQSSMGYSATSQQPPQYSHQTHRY
UniProt Q15517: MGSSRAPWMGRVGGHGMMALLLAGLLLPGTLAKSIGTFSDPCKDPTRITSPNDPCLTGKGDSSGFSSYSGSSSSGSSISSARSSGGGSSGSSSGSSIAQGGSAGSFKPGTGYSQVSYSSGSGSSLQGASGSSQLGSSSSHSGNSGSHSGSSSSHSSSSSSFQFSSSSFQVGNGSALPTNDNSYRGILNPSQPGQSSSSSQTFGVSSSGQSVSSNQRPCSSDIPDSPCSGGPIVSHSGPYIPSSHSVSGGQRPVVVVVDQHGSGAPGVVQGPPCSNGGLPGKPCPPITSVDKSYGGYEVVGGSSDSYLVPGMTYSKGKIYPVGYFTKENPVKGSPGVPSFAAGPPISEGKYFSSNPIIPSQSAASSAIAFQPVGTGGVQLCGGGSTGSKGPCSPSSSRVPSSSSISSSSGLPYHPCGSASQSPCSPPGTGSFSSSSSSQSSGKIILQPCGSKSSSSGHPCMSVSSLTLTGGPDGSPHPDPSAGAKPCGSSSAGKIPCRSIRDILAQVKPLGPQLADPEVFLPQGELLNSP
UniProt Q8N4Q1: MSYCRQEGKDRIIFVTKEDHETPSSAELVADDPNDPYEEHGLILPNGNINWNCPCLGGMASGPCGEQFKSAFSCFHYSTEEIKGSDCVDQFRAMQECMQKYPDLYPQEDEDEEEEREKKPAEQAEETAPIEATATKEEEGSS
UniProt Q99618: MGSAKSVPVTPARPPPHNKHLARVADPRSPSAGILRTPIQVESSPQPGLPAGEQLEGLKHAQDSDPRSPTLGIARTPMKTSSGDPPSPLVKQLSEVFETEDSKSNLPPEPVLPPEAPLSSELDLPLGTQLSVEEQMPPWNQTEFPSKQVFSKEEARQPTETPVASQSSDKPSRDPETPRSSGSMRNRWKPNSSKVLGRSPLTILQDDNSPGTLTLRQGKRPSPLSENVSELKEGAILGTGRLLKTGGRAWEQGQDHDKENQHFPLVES
UniProt Q14839: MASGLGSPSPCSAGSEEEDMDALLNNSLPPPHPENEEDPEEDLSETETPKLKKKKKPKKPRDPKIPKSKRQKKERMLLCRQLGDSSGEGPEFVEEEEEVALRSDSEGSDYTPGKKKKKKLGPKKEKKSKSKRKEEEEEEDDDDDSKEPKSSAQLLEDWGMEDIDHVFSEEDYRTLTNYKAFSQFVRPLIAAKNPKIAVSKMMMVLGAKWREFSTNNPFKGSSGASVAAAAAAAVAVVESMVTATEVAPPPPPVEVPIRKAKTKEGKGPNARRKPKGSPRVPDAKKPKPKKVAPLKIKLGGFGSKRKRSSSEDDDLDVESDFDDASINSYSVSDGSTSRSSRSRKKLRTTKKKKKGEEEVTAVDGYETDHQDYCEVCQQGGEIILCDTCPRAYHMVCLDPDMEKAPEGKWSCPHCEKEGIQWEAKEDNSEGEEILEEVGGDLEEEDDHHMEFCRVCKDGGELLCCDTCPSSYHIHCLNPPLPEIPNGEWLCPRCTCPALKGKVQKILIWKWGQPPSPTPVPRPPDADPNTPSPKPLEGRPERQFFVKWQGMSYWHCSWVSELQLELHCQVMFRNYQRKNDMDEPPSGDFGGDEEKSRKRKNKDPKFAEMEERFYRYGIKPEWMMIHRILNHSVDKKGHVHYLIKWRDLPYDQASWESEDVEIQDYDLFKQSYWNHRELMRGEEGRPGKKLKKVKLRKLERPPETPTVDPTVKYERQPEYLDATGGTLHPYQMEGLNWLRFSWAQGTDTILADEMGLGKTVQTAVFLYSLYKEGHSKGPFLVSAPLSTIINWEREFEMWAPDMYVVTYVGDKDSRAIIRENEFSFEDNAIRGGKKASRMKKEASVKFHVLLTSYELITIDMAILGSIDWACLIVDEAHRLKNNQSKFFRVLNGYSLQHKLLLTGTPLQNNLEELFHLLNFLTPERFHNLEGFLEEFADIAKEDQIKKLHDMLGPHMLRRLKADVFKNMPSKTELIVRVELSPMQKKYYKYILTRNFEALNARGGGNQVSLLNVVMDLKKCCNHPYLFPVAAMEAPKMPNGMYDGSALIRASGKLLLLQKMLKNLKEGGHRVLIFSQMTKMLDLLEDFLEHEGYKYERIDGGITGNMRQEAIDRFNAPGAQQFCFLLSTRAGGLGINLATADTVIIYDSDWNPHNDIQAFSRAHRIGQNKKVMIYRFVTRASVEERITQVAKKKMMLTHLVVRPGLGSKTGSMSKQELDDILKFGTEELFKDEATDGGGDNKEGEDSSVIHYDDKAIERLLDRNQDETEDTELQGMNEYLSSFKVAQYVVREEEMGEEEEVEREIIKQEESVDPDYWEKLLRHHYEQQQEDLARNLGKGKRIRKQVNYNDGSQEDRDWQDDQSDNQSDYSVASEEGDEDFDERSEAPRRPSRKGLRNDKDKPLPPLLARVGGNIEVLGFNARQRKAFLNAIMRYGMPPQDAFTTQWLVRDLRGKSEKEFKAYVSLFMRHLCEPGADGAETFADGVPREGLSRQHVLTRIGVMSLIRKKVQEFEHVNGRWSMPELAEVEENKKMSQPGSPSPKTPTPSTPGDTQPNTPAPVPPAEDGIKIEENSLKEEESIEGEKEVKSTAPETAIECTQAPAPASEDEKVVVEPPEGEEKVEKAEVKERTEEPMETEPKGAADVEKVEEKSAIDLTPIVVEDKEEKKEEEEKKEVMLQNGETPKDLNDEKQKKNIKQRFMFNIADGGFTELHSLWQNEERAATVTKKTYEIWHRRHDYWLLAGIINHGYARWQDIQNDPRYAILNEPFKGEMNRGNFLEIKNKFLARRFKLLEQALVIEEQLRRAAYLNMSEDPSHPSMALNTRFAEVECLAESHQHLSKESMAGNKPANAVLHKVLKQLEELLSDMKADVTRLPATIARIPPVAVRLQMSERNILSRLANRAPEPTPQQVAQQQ
UniProt Q13111, whole entry, looked up: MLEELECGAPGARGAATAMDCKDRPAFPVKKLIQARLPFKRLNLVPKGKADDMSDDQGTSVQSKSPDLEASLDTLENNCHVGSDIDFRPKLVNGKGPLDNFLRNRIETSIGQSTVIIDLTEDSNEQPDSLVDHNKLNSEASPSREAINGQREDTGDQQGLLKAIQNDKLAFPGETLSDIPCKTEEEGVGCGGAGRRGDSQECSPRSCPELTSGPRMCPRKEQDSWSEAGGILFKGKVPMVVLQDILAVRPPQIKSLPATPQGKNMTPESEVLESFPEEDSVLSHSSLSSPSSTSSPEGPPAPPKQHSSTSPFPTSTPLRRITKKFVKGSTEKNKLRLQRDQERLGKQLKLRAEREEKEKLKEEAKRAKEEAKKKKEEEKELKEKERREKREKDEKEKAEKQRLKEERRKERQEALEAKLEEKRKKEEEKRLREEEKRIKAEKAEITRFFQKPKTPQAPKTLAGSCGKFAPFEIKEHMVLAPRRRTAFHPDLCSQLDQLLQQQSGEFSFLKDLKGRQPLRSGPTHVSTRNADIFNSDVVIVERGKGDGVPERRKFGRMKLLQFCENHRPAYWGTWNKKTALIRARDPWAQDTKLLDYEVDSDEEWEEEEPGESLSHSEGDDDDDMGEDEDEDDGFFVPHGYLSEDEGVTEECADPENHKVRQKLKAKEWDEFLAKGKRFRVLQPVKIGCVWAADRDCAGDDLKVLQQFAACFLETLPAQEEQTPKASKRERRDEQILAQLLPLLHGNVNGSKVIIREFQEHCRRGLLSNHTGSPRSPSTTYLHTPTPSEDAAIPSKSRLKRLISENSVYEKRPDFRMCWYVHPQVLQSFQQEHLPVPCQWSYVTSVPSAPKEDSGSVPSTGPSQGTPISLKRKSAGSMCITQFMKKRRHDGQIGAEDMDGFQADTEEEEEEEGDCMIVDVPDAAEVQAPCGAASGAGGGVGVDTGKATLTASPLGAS
UniProt Q92903: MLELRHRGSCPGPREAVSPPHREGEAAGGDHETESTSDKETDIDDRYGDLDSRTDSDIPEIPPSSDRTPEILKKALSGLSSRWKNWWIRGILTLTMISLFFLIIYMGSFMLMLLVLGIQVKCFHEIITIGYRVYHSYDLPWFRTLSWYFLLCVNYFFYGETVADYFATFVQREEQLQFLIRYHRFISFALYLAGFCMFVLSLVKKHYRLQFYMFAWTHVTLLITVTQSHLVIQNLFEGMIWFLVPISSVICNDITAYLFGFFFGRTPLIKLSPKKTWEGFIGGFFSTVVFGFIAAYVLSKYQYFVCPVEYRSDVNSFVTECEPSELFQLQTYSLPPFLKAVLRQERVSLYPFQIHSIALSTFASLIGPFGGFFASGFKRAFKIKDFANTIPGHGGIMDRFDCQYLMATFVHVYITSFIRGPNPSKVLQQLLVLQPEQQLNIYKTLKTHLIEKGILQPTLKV
UniProt O15182: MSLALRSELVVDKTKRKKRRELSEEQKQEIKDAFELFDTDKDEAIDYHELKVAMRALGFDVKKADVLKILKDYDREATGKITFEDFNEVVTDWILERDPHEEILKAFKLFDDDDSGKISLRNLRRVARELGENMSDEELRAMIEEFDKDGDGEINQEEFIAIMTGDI
UniProt Q00587: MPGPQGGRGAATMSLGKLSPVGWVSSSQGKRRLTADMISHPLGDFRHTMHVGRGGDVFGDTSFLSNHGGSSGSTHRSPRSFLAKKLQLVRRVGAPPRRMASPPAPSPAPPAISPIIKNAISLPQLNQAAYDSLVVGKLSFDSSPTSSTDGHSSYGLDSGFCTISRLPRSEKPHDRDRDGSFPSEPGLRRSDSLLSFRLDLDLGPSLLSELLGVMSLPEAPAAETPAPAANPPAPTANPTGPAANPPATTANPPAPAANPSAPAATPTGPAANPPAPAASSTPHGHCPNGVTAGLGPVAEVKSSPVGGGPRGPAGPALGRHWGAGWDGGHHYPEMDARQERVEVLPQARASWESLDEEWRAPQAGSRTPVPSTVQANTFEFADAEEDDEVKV
UniProt Q9NRR3: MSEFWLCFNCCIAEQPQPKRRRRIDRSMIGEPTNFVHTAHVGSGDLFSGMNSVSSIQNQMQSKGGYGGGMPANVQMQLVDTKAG
UniProt O95319: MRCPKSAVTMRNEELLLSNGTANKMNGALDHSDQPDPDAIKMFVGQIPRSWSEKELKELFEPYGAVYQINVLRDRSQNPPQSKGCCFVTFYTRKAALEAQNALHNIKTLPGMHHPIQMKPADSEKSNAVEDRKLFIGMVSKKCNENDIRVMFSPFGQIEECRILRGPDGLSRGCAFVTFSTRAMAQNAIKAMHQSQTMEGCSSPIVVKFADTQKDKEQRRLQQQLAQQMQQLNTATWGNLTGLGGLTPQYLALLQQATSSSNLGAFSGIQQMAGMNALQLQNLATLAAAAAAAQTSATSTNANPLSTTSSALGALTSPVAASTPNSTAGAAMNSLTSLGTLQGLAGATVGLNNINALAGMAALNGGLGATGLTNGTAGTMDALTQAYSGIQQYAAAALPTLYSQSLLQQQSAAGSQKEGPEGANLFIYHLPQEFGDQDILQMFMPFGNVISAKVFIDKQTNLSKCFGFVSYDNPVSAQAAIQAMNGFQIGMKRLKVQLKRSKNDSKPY
UniProt Q9UFW8: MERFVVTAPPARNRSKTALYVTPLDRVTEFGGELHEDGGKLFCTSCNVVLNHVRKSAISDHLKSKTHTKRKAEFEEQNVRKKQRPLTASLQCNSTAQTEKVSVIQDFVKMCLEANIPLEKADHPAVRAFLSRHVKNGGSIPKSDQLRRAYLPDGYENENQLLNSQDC
UniProt Q6IPU0: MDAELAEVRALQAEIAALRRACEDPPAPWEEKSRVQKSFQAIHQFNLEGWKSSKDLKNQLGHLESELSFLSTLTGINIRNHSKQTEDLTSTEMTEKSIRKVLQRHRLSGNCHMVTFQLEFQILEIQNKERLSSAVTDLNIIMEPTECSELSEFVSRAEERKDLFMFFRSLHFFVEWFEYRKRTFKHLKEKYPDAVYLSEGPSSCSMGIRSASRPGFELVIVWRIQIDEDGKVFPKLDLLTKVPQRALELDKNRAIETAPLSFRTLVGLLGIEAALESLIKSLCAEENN
UniProt O43633: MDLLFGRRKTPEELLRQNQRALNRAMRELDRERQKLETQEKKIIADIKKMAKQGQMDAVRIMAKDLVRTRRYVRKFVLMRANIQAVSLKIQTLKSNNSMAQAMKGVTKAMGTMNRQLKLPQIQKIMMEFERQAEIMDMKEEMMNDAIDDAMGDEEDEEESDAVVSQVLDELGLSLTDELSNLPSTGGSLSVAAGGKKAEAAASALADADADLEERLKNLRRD

Some of the results follow.

Compound in one test: Cc1sc2c(c1C)C(c1ccc(Cl)cc1)=N[C@@H](CC(=O)OC(C)(C)C)c1nnc(C)n1-2
The experiment in a line: log2 fold change, soluble protein after heating vs DMSO (PISA); higher = thermal stabilisation; K562 cells, 10 uM, 30 min; active = over 0.2 and 3.5 SD of the protein, either way, in both replicates (recomputed). Put shortly:
(§1)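 Aliquots of K562 cells (2×10^6 cells/mL) treated with 10 μM compound for 30 min were heated for 3 min over 48°C-58°C. After pooling and extraction in PBS with 0.5% NP-40 at 4°C, soluble protein from a 21,000xg, 90 min spin was quantified by TMTpro 16plex LC-MS/MS with channel sums equalised. Thermal stability is expressed against control samples, from duplicates, as a log2 fold change.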
For CDK8 (UniProt P49336), the log2 fold change was inactive: 0.035.

CDK1 (UniProt P06493): the log2 fold change was inactive: 0.019. Same read-out and setting: with CDSN (UniProt Q15517) the figure was inactive: -0.336; with CFAP36 isoform 2 (UniProt Q96G28), inactive: -0.009.

Compound in the next test: c1ccc([C@@H]2C[C@H]2NC2CCNCC2)cc1
The description is as above. Put shortly:
as §1
Consider CFAP298 (UniProt P57076), for which the log2 fold change was inactive: 0. Same read-out and setting: as for CDKN1B (UniProt P46527), the figure is inactive: -0.004; as for CHCHD4 isoform 2 (UniProt Q8N4Q1), inactive: -0.113. The same measure, in the same setting: as for CDCA3 (UniProt Q99618), the figure is inactive: 0.025. As to CHD4 isoform 2 (UniProt Q14839), the log2 fold change is inactive: 0.032. For the target CHAF1A (UniProt Q13111), the log2 fold change is inactive: -0.045. Same read-out and setting: with CHD3 isoform 3 (UniProt Q12873) the figure was inactive: 0.087.

On to CDK11B (UniProt P21127), for which the log2 fold change was inactive: 0.059. Same read-out and setting: with CDS1 (UniProt Q92903) the figure was inactive: -0.204; with CETN3 (UniProt O15182), inactive: -0.014; with CDC42EP1 (UniProt Q00587), inactive: -0.029.

On to CDC42SE2 (UniProt Q9NRR3), for which the log2 fold change was inactive: 0.081. The same measure, in the same setting: as for CEP250 (UniProt Q9BV73), the figure is inactive: 0.054; as for CELF2 isoform 3 (UniProt O95319), inactive: -0.014.

Consider CGGBP1 (UniProt Q9UFW8), for which the log2 fold change is inactive: 0.048. For CENPP (UniProt Q6IPU0), the log2 fold change was inactive: 0.115. CHMP2A (UniProt O43633): the log2 fold change is inactive: 0.007. On to CHD6 (UniProt Q8TD26), for which the log2 fold change was inactive: 0.248.
